PMC5567129
These are yes or no findings as the source states them, for the method shown. In cells and extracts the contact can be indirect. Some binding calls cover weakened binding; strength is not graded here.

Biological target: T1, contactin-associated protein (Caspr) (mouse (endogenous in lumbosacral spinal cord)) (UniProt O54991)
T1 sequence: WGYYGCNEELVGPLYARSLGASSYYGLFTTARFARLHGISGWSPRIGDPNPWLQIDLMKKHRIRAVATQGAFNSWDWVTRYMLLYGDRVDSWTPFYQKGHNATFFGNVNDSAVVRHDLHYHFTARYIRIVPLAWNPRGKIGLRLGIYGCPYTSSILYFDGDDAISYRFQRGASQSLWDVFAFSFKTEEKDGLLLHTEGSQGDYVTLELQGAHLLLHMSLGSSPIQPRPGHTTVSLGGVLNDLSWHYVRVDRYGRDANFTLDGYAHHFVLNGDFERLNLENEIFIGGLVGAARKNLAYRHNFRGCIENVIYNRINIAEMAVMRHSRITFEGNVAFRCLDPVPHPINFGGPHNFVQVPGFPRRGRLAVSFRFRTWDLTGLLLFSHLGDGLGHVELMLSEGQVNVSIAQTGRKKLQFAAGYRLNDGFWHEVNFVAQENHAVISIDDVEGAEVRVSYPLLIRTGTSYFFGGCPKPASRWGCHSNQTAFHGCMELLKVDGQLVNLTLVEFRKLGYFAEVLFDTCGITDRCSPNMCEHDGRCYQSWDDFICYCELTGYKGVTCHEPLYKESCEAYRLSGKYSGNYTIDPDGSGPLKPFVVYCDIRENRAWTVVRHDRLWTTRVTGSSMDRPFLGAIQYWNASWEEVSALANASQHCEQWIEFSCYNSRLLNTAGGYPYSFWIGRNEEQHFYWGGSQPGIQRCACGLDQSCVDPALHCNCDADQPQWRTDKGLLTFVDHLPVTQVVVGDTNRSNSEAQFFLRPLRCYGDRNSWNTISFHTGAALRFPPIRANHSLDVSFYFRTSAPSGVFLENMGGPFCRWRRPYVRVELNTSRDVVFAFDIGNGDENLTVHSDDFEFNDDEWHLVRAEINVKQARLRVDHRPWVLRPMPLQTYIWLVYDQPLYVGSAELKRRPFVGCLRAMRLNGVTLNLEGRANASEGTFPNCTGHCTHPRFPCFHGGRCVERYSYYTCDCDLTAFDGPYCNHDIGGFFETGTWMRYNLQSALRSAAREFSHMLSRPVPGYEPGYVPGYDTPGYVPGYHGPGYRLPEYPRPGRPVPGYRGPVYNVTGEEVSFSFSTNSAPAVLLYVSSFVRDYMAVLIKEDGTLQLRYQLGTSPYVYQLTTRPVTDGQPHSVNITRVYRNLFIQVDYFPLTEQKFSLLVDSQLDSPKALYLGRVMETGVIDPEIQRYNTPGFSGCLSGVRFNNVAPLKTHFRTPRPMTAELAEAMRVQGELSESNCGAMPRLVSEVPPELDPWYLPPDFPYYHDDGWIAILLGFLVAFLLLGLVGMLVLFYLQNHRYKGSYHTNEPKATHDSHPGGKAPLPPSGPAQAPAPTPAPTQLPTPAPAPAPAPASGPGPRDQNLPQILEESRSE
Experiment: co-IP

## cellular prion protein, PrP^C (from UniProt P04925 23-230)
  binding: binds
